# The other results are listed elsewhere or left out. Shown are side measurements of this screen, not its main read-out; they come without a call. Compounds called inactive in the main read-out are mostly missing here. Words in brackets tell the shape of the fitted curve; partial curves, single points and poor fits give uncertain potencies.
# Test: IkB Signaling
# Conditions: ABC-DLBCL IkBa-CBG/CBR dual luciferase ratio (green luciferase fused to IkBa over red control in OCI-Ly3 lymphoma cells), 4 h
# In short: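 Luminescence ratio of IκBα-fused green versus native red beetle luciferase in OCI-Ly3 cells, 4 h post-doxycycline with compound; red signal alone, scaled from basal (0%) to zero light (-100%), flagged nonspecific or cytotoxic effects.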
# [1] = measured here: control luc red channel unless noted
# [2] = measured here: IkB-luc green channel
# [3] = measured here: control luc red channel
smiles,measurement,setting,value
Oc1ccc(-c2nc3ccccn3c2NCc2ccc3c(c2)OCO3)cc1,AC50,[1],"15.8 µM [falling, partial curve]"
COc1ccc(-c2noc(CCC(=O)N(C)c3ccccc3C)n2)cc1,AC50,[1],"25.1 µM [falling, partial curve]"
O=C(Nc1ccccc1O)c1ccccc1O,AC50,[1],"15.8 µM [falling, partial curve]"
O=C(C1=C(O)C(=O)N(Cc2ccco2)C1c1cccnc1)c1cc2ccccc2o1 (stereo not drawn),AC50,[1],"20 µM [rising, single point] [measured here: IkB-luc green channel]"
COc1ccc(Nc2c3c(nc4ccc(NC(=O)/C=C/c5cc(OC)c(OC)c(OC)c5)cc24)CCCC3)cc1OC,AC50,[1],"7.94 µM [falling, full curve]"
Cc1ccc2c(CC(=O)Nc3cccc(Cl)c3C)coc2c1,AC50,[1],"39.8 µM [falling, single point]"
CCOC(=O)c1c(C)[nH]c(C(=O)C(C)OC(=O)c2cccc(OCc3c(C)noc3C)c2)c1C (stereo not drawn),AC50,[1],"10 µM [falling, partial curve]"
Cn1c(=O)n(C/C=C/c2ccccc2)c(=O)c2c1nc1n2CCN1c1ccc(F)cc1,AC50,[1],"39.8 µM [falling, single point]"
CCOC(=O)N1CCN(C(=O)c2ccc(CN(c3ccc(C)c(C)c3)S(C)(=O)=O)cc2)CC1,AC50,[1],"12.6 µM [falling, partial curve]"
CCN1C(=O)c2ccccc2Sc2ccc(NC(=O)COc3ccc(Cl)cc3)cc21,AC50,[1],"0.01 µM [falling, full curve, poor fit]"
O=C(C1CCCN(S(=O)(=O)c2cccc3cccnc23)C1)N1CCN(c2ccc(F)cc2)CC1 (stereo not drawn),AC50,[1],"10 µM [falling, partial curve]"
CCOc1ccc(-n2c(SCC(=O)Nc3cccc(Cl)c3)nc3c(oc4ccccc43)c2=O)cc1,AC50,[1],"10 µM [falling, partial curve]"
O=S(=O)(C/C(=C/CO)S(=O)(=O)c1ccccc1)c1ccccc1,AC50,[1],"6.31 µM [falling, partial curve]"
c1cc2[nH]snc2c2nc(C3CC3)nc12,AC50,[2],"10 µM [falling, partial curve]"
same,AC50,[3],"12.6 µM [falling, partial curve]"
CCc1nonc1NC(=O)c1oc2ccc(F)cc2c1C,AC50,[1],"0.0794 µM [rising, full curve]"
Cc1cccc(OCC(=O)NC(Cc2c[nH]c3ccccc23)C(=O)O)c1C (stereo not drawn),AC50,[1],"25.1 µM [falling, single point]"
CN1CCN(c2ccccc2NC(=O)c2ccc(-c3ccccc3)cc2)CC1,AC50,[1],"15.8 µM [falling, partial curve]"
COc1ccc(-n2cc(-c3ccccc3)c3c(NC4CCCCC4)ncnc32)cc1,AC50,[1],"39.8 µM [falling, single point]"
Cc1cc(C)nc(SCc2nnc(SCC(=O)Nc3ccc(C)c(C)c3)n2Cc2ccco2)n1,AC50,[1],"31.6 µM [falling, partial curve]"
COc1cccc(C(=O)NCC(c2ccc3c(c2)OCO3)N2CCOCC2)c1 (stereo not drawn),AC50,[1],"3.98 µM [rising, partial curve]"
CCn1c(C(=O)Nc2ccsc2C(=O)OC)cc2sc(Cl)cc21,AC50,[1],"10 µM [falling, partial curve]"
O=C(NCc1ccccc1)C(=O)NCC(c1cccs1)S(=O)(=O)c1ccccc1 (stereo not drawn),AC50,[1],"0.501 µM [rising, full curve, poor fit]"
COc1ccc2cc3cc(C(=O)NCc4ccccc4OC)oc3nc2c1,AC50,[1],"0.794 µM [falling, full curve]"
CN1CCN(C(=O)c2ccc3c(=O)n(Cc4ccc(Cl)cc4)c(=S)[nH]c3c2)CC1,AC50,[1],"12.6 µM [falling, partial curve]"
OC(COCc1ccc(Cl)cc1)CN1CCN(CC(O)COCc2ccc(Cl)cc2)CC1 (stereo not drawn),AC50,[1],"12.6 µM [falling, partial curve]"
CC(=O)c1ccc(N2CCN(C(=O)CCCCn3c(=O)[nH]c4ccsc4c3=O)CC2)cc1,AC50,[1],"10 µM [falling, partial curve]"
CCSc1nnc(NC(=O)c2cc(=O)c3cc(C)c(C)cc3o2)s1,AC50,[1],"3.16 µM [rising, partial curve]"
COc1ccccc1-c1cc(C(=O)Nc2cc(C)nn2-c2ccccc2)no1,AC50,[1],"0.631 µM [falling, full curve]"
Cn1nc(-c2ccc(Cl)cc2)c2cc(C(=O)NCc3ccco3)sc21,AC50,[1],"6.31 µM [falling, partial curve]"
CCc1cnc2c(c1SCC(=O)c1ccc(Cl)cc1)c(=O)n(C)c(=O)n2C,AC50,[1],"39.8 µM [falling, single point]"
CCn1c(Sc2nc(C)nc3scc(-c4cccs4)c23)n[nH]c1=O,AC50,[1],"20 µM [falling, partial curve]"
O=C(NCCc1ccc(F)cc1)C(=O)NCC(c1ccco1)S(=O)(=O)c1cccs1 (stereo not drawn),AC50,[1],"6.31 µM [falling, single point]"
COc1ccc(S(=O)(=O)n2nc(C)c(S(=O)(=O)N3CCC(C)CC3)c2C)cc1OC,AC50,[1],"31.6 µM [falling, single point]"
Cc1nc2ccccc2c2oc(C(=O)NCCN3CCCCC3C)cc12 (stereo not drawn),AC50,[1],"39.8 µM [rising, single point] [measured here: IkB-luc green channel]"
CCc1nnc(NC(=O)CCC(=O)N2CCN(C3CCCCC3)CC2)s1,AC50,[1],"31.6 µM [rising, partial curve] [measured here: IkB-luc green channel]"
COc1cc(OC)cc(C(=O)N2CC(=O)Nc3ccc(Cl)cc3C2c2ccccc2)c1 (stereo not drawn),AC50,[1],"3.98 µM [falling, partial curve]"
CCOc1ccccc1NC(=O)C(CC)Sc1nc2ccncc2[nH]1 (stereo not drawn),AC50,[1],"20 µM [falling, single point]"
COc1ccc(NCc2cc3cc4c(cc3n(CC(=O)Nc3cc(C)ccc3C)c2=O)OCCO4)cc1,AC50,[2],"39.8 µM [rising, single point]"
same,AC50,[3],"20 µM [falling, partial curve]"
CC(C)c1ccc(NS(=O)(=O)c2ccc3nc(-c4ccccc4)[nH]c3c2)cc1,AC50,[1],"31.6 µM [falling, partial curve]"
CCOc1ccc(CN2CCc3nc(Nc4ccc5c(c4)OCCO5)ncc3C2)cc1,AC50,[1],"15.8 µM [falling, partial curve]"
COc1ccc(NC(=O)c2ccc3c(c2)sc2nc(-c4ccc(OC)cc4)cn23)cc1,AC50,[1],"15.8 µM [falling, partial curve]"
O=C(C1CCN(S(=O)(=O)c2cccc3nsnc23)CC1)N1CCc2ccccc2C1,AC50,[1],"15.8 µM [falling, partial curve]"
Cc1ccc(-c2cn(-c3cccc(Cl)c3)c(S(=O)(=O)CC(=O)Nc3ccccc3F)n2)cc1,AC50,[1],"0.398 µM [falling, partial curve]"
CCOc1ccc(C2CC(=O)N(c3cccc(F)c3)C3=C2C(=O)OC3)cc1 (stereo not drawn),AC50,[1],"25.1 µM [falling, partial curve]"
Cc1cccc(N2CCN(S(=O)(=O)c3csc(C(N)=O)c3)CC2)c1C,AC50,[1],"15.8 µM [falling, partial curve]"
Cc1ccc(N(Cc2cccs2)C(=O)c2ccccc2Cl)cc1,AC50,[1],"15.8 µM [falling, partial curve]"
CCCC(c1nnnn1CC1CCCO1)N1CCN(c2cc(Cl)ccc2C)CC1 (stereo not drawn),AC50,[1],"31.6 µM [falling, partial curve]"
C1=C(CCNc2ncnc3nc[nH]c23)CCCC1,AC50,[1],"25.1 µM [falling, partial curve]"
COc1ccc(C(=O)NCCn2ccc3ccccc32)cc1OC,AC50,[1],"10 µM [falling, partial curve]"
CCOC(=O)c1ccccc1NC(=O)CSc1nnnn1C1CCCCC1,AC50,[1],"15.8 µM [falling, partial curve]"
COc1ccc(COC(=O)c2n[nH]c3ccccc23)cc1F,AC50,[1],"31.6 µM [falling, single point]"
O=C(c1ccc(COc2ccc3c(c2)CCC3)o1)N1CCN(c2ccccc2)CC1,AC50,[1],"7.94 µM [falling, partial curve]"
CCc1ccc2[nH]c(=O)c(C(c3nnnn3CCOC)N3CCN(c4ccccc4F)CC3)cc2c1 (stereo not drawn),AC50,[1],"25.1 µM [falling, single point]"
c1ccc(-c2nnc(CSc3nnc(-c4cccs4)o3)o2)cc1,AC50,[1],"25.1 µM [falling, partial curve]"
CCOc1cc(Br)cc(C2NC(=O)c3c(sc4c3CCN(C)C4)N2)c1O (stereo not drawn),AC50,[1],"12.6 µM [falling, single point]"
COc1ccc(CNC(=O)CSc2ncc3c(n2)-c2ccc(Cl)cc2N(Cc2ccc(F)cc2)S3(=O)=O)cc1OC,AC50,[1],"31.6 µM [rising, partial curve] [measured here: IkB-luc green channel]"
CCOC(=O)c1ccc(NC(=O)CSc2nnc3c4ccccc4n(CC)c3n2)cc1,AC50,[1],"39.8 µM [rising, single point]"
O=C(CSc1c2c(nc3ccccc13)CCC2)Nc1ccc(F)cc1,AC50,[1],"12.6 µM [falling, partial curve]"
CC(C)(C)c1ccc(C(=O)NCC(c2ccco2)S(=O)(=O)c2ccc(F)cc2)cc1 (stereo not drawn),AC50,[1],"39.8 µM [falling, single point]"
CCc1ccc2ncc(C(=O)c3ccc(C)c(C)c3)c(N3CCC(C(N)=O)CC3)c2c1,AC50,[1],"1.58 µM [falling, full curve]"
Cc1cccc(N2CCN(Cc3nnc(-c4ccccc4C)o3)CC2C)c1 (stereo not drawn),AC50,[1],"31.6 µM [falling, partial curve]"

# Laid out differently: results already given
smiles | measurement | setting | value
O=C(Nc1ccccc1O)c1ccccc1O | AC50 | [1] | 15.8 µM [falling, partial curve]
O=C(C1=C(O)C(=O)N(Cc2ccco2)C1c1cccnc1)c1cc2ccccc2o1 (stereo not drawn) | AC50 | [1] | 20 µM [rising, single point] [measured here: IkB-luc green channel]
COc1ccc(Nc2c3c(nc4ccc(NC(=O)/C=C/c5cc(OC)c(OC)c(OC)c5)cc24)CCCC3)cc1OC | AC50 | [1] | 7.94 µM [falling, full curve]

# Source: PubChem BioAssay AID445 (National Center for Advancing Translational Sciences (NCATS), 2006)
